Test results taken from publication PMC12176620, “Structure of the ATP-driven methyl-coenzyme M reductase activation complex” (Nature, 2025).
These are yes or no findings as the source states them, for the method shown. In cells and extracts the contact can be indirect. These calls come from enrichment with a bait or labelling near it, and not all partners need be listed.

Biological target: T1, Twin-Strep McrC (Methanococcus maripaludis (endogenous in M. maripaludis JJ Δupt)) (UniProt Q6LWZ7)
T1 sequence: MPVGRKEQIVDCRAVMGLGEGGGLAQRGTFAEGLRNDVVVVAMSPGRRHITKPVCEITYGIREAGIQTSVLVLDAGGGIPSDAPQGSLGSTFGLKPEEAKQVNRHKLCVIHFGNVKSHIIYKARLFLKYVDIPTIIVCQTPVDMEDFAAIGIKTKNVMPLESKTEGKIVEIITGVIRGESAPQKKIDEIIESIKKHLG
Test: affinity purification with mass spectrometry; Twin-Strep McrC from M. maripaludis lysate on Strep-Tactin Sepharose gravity column, anaerobic, 20 mM HEPES, 150 mM NaCl, pH 7.6, eluted with 2.5 mM desthiobiotin; co-purified subunits seen on SDS gel and confirmed by mass spectrometry of gel bands

Row | binding | Substance
1 | binds | methanogenic marker protein Mmp3
2 | binds | McrG
3 | binds | methanogenic marker protein Mmp17
4 | binds | methanogenic marker protein Mmp7
